Among the data in publication PMC5923263 are binding values, retold here.

Results are given in words; binding and its absence hold for the method and conditions named. For some assays here: Binding can be weak; no strength is given. Tags and fused reporters may be left off the sequences shown.

Assay [1] concerns the target T1, S-tagged TrxM_(C35S) (Synechocystis sp. PCC 6803) (UniProt P52231).
T1 sequence: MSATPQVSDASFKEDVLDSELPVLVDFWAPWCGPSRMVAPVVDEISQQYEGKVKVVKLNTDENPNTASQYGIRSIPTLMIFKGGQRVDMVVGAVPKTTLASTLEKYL
Put plainly: mixed-disulfide trapping in an E. coli co-expression strain, non-reducing SDS-PAGE and immunoblot; as a1, but the soluble fraction was treated with 100 mM DTT before electrophoresis. In general terms: In western blotting, separated proteins are transferred to a membrane and probed.

Assay [2] addresses T1, S-tagged TrxM_(C35S) (Synechocystis sp. PCC 6803). In words: mixed-disulfide trapping in an E. coli co-expression strain, non-reducing SDS-PAGE and immunoblot; His-Sll1961 and S-tagged TrxM_(C35S) co-expressed in E. coli Origami2 (DE3); soluble protein fraction on non-reducing 12% SDS-PAGE; detected with anti His-tag antibody and S-protein; without ….

On to “His-tagged Sll1961 (wild type) (Synechocystis sp. PCC 6803)”, for which the binding result in assay [1] was “no binding (only with 100 mM DTT treatment)”; in assay [2], “binds”.

In the case of “His-tagged Sll1961 C124A (Synechocystis sp. PCC 6803)”, the binding entry in assay [2] is given as “binds”.

On to “His-tagged Sll1961 C229A (Synechocystis sp. PCC 6803)”, for which the binding entry in assay [2] is reported as “binds”.

Regarding “His-tagged Sll1961 C307A (Synechocystis sp. PCC 6803)”, the binding result in assay [2] was “no binding”.
